These are yes or no findings as the source states them, for the method shown. Binding seen in cells or lysates may run through a third protein.
Molecular target: HA-CERT (UniProt Q9Y5P4)
Experiment: co-IP; lysates of cells stably expressing HA-C10orf76 or HA-CERT incubated with anti-HA antibody-conjugated agarose for 1 h at 4°C, washed twice; eluates immunoblotted with anti-HA, anti-PI4KB or anti-CERT antibodies

The chains behind the UniProt entries cited, without tags or fusion partners. Where a name states a change or a piece, a line headed by the entry shows the natural chain unless it says otherwise.
UniProt Q9Y5P4: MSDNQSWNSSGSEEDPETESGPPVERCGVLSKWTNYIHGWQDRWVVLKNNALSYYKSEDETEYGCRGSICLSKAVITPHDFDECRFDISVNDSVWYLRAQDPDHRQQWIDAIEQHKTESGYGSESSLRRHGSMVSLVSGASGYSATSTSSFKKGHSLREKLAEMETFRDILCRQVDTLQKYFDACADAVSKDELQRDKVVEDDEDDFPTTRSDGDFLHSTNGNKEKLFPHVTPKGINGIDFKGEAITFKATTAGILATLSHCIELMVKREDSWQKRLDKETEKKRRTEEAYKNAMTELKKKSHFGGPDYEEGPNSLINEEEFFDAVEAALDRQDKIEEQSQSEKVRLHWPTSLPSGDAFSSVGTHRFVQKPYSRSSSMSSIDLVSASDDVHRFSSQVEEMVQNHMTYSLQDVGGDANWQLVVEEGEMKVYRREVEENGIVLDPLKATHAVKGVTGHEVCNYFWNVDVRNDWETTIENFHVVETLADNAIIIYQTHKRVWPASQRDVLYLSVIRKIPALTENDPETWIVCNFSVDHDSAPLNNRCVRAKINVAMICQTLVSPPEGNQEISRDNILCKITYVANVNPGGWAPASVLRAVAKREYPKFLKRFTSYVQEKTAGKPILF
UniProt Q9UBF8: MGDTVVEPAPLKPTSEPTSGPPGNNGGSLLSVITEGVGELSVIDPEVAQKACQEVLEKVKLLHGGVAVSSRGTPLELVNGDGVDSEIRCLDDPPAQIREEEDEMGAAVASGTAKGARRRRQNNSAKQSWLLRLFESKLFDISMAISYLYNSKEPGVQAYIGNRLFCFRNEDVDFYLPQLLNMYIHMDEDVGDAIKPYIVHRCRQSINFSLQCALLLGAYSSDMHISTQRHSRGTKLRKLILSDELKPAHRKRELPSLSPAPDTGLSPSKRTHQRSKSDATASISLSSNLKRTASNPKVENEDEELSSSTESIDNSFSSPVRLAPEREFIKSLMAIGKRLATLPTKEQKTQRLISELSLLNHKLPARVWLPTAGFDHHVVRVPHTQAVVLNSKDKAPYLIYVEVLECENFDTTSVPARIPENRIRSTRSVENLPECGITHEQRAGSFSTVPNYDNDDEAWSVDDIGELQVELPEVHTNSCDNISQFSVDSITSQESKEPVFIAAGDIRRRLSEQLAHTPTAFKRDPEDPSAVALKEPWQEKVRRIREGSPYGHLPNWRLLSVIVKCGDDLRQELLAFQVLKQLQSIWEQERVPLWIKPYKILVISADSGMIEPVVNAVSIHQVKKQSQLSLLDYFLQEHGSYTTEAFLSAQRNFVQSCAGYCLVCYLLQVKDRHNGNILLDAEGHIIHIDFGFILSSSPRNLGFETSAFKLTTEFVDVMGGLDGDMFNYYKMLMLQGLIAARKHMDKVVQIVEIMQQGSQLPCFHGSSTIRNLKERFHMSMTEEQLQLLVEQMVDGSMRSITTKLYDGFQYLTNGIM

binding: no binding
Substance: PI4KB (from UniProt Q9UBF8 1-816) (enzyme)

— article PMC10192306
